Sequences and labels used below:
B1: humanized anti-PVRIG antibody 30H2 (antibody, human IgG4 S228P, F234A L235A, V domains shown)
VH: EVQLVESGGGLVQPGGSLRLSCAASGFTFSGDCMGWFRQAPGKGLDEGVATIDNAGRIKYADSVKGRFTISRDNAKNSLYLQMNSLRAEDTAVYYCAAGWTFGGQCSPADWGQGTQVTVSS
B2: humanized anti-PVRIG antibody 30H3 (antibody, human IgG4 S228P, F234A L235A, V domains shown)
VH: B1 VH with F27Y, T28S, F29Y
B3: anti-PVRIG antibody 38 (antibody, human IgG4 S228P, F234A L235A, V domains shown)
VH: QVQLVESGGGSVQAGGSLRLSCAASPSTYGPSDMAWFRQAPGKQREGVATISAAGRLTYYTDSVRGRFTISRDNAKNTMYLQMNSLKPEDTAMYYCAADFAGGSSLFADYKYWGQGTQVTVSS
B4: positive antibody Tab5 (antibody, human IgG4 S228P, kappa, F234A L235A, V domains shown)
VH: EVQLVESGGGVVKPGGSLRLSCAASGFTFGTSSMNWVRQAPGKGLEWVAVISFDGTEIHYADSVKGRFTISRDNSKSTVFLQMNSLRPDDTALYYCAKGSGNIYFYSGMDVWGQGTTVTVSS
VL: DIQMTQSPSTLSASVGDRVTITCRAGQSISGWLAWFQQKPGKAPNLLIYETSTLESGVPSRFSGSGSGTEYTLTISSLQPDDFATYYCQQYYSYPLTFGQGTKVEIKR
B5: humanized anti-PVRIG antibody 39H1 (antibody, human IgG4 S228P, F234A L235A, V domains shown)
VH: EVQLVESGGGLVQPGGSLRLSCAASGFTFSTDCMGWFRQAPGKGLEGVAHIDSDGIPRYVESVKGRFTISRDNAKNSLYLQMNSLRAEDTAVYYCVVGFKFGDYCAPNDWGQGTMVTVSS
B6: humanized anti-PVRIG antibody 39H2 (antibody, human IgG4 S228P, F234A L235A, V domains shown)
VH: B5 VH with F29S, S30R
B7: humanized anti-PVRIG antibody 39H4 (antibody, human IgG4 S228P, F234A L235A, V domains shown)
VH: B5 VH with F27Y, F29S, S30R, R71Q, N73H
B8: anti-PVRIG antibody 39 (antibody, human IgG4 S228P, F234A L235A, V domains shown)
VH: QVQLVESGGGSVQAGGSLRLSCAASRYTSRTDCMGWFRQAPGKEREGVAHIDSDGIPRYVESVKGRFTISQDHAKNTLYLQMNSLKPEDSATYYCVVGFKFGDYCAPNDWGQGTQVTVSS
B9: humanized anti-PVRIG antibody 151H7 (antibody, human IgG4 S228P, F234A L235A, V domains shown)
VH: HVQLVESGGGLVQPGGSLRLSCVASASGFTYRPYCMAWFRQAPGKEREAVAGIDIFGGTTYADSVKGRFTASRDNAGFSLYLQMNSLRAEDTAVYYCAAGDSPDGRCPPLGQGLNYWGQGTMVTVSS
B10: anti-PVRIG antibody 151 (antibody, human IgG4 S228P, F234A L235A, V domains shown)
VH: B9 VH with L11S, P14A, Y81F, S86D, R88K, A89P, V94M, M122Q
B11: anti-PVRIG antibody 30 (antibody, human IgG4 S228P, F234A L235A, V domains shown)
VH: HVQLVESGGGSVQAGGSLRLSCEASGYSYSGDCMGWFRRAPGKERDEGVATIDNAGRIKYADSVKGRFTISHGNGKYILYLQMNSLKPEDTDMYYCAAGWTFGGNCSPADWGQGTQVTVSS
B12: humanized anti-PVRIG antibody 20H5 (antibody, human IgG4 S228P, F234A L235A, V domains shown)
VH: EVQLVESGGGLVQPGGSLRLSCAASGYTSRTDCMGWFRQAPGKEHEGVAHIDSDGIPRYVDSVKGRFTISQDHAKNSLYLQMNSLRAEDTAVYYCVVGFKFDEDYCAPNDWGQGTMVTVSS

Chains of the proteins cited; added tags and fusions are not shown. Lines headed by an entry give the natural chain unless they say otherwise; changes in a name come on top.
UniProt Q6DKI7: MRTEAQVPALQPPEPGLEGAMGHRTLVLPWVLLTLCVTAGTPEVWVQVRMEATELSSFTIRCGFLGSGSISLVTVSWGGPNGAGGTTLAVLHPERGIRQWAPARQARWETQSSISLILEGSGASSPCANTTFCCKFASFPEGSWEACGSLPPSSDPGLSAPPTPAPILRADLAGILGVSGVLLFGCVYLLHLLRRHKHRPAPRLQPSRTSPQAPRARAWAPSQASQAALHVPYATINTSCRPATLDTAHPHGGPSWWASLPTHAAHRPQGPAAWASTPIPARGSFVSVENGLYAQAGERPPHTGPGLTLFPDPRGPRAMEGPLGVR

Residue numbers refer to the chain shown, from its start. No constants are given. Whether binding was seen depends on the method and setting. A result given as binding can be weak or reduced; the word gives no strength.

The first experiment deals with his-tagged human PVRIG (h-PVRIG-his) recombinant protein (human) (UniProt Q6DKI7). The experiment in a line: BLI (Fortebio). A general note: Biolayer interferometry detects binding as a change in optical thickness at a sensor tip.
Turning to B1, the binding entry is reported as “binds”.

Turning to B2, the binding entry is given as “binds”.

Turning to B3, the binding entry is reported as “binds”.

For the molecule B4, the binding entry is reported as “binds”.

Regarding B5, the binding entry is “binds”.

On to B6, for which the binding entry is given as “binds”.

Regarding B7, the binding entry is recorded as “binds”.

B8: the binding entry is “binds”.

As to B9, the binding result was “binds”.

On to B10, for which the binding result is recorded as “binds”.

For the molecule B11, the binding result was “binds”.

Consider B12, for which the binding entry is recorded as “binds”.

The target is the same in another experiment. Kind of experiment: ELISA, coated antigen.
On to B3, for which the binding result is given as “binds”.

As to B8, the binding entry was “binds”.

Consider B10, for which the binding entry was “binds”.

As for B11, the binding result is “binds”.

The values are drawn from US20240376207A1.
